This is an account of results in the supplement of paper PMC9671908.

Structures can show the parent of a compound that is named as a salt. This is one part of the list. Repeats are few or missing, and single values can be far off.

In this assay the test system is MIA PaCa-2 parental. The assay can be described thus: parental cell viability relative to untreated parental control; higher = more surviving cells. Conditions: treatment time: 9 days.
For the compound `COc1ccc([C@@H](O)c2cc(-c3ncnc4cc(N5CCOCC5)ccc34)c(F)cc2Cl)nn1` [Nedisertib] (inhibitor concentration: 10µM), the parental cell viability was determined as 95%.
For the compound `CC(C)(C)c1cnc(CSc2cnc(NC(=O)C3CCNCC3)s2)o1` (inhibitor concentration: 30nM), the parental cell viability was 91%.
Take `C/C(=N\NC(=O)c1cccc(S(=O)(=O)N2CCOCC2)c1)c1cc(Cl)ccc1O` (inhibitor concentration: 1µM): the parental cell viability came out at 75%.
With `CCN1C(=O)N(c2c(F)c(OC)cc(OC)c2F)Cc2cnc3[nH]c(CN4CCOCC4)cc3c21` [Pemigatinib] (inhibitor concentration: 10µM) the figure was 82%; with `CC[C@@H]1C(=O)N(C)c2cnc(Nc3ccc(C(=O)NC4CCN(C)CC4)cc3OC)nc2N1C1CCCC1` (inhibitor concentration: 30nM), 1%.
With `CN1C(=O)N[C@H](Cc2c[nH]c3c(Cl)cccc23)C1=O` [Necrostatin-2] (inhibitor concentration: 30µM), the parental cell viability was found to be 99%.
The figure for `Cc1cc(Nc2cc(Cl)nc(Oc3ccc([N+](=O)[O-])cc3)n2)n[nH]1` [Autophinib] (inhibitor concentration: 1µM) is 80%; for `C[C@@H](Oc1cc(-n2cnc3ccc(CN4CCN(C)CC4)cc32)sc1C(N)=O)c1ccccc1C(F)(F)F` (inhibitor concentration: 300nM) it is 102%; for `COc1cc(OC)c(/C=C/S(=O)(=O)Cc2ccc(OC)c(OP(=O)(O)O)c2)c(OC)c1` [Briciclib] (inhibitor concentration: 3nM) it is 80%.
In the case of `c1ccc(-c2ccc(CNc3nc(-c4ccccn4)nnc3-c3ccccc3)cc2)cc1` (inhibitor concentration: 100nM), the parental cell viability was found to be 80%.
The figure for `O=C1C(SCCO)=C(SCCO)C(=O)c2ccccc21` (inhibitor concentration: 3µM) is 108%; for `CN1CCN(CCOc2cc(OC3CCOCC3)c3c(Nc4c(Cl)ccc5c4OCO5)ncnc3c2)CC1` [Saracatinib] (inhibitor concentration: 1µM) it is 14%; for `CC(=O)c1cnc2ccc(-c3cc(Cl)c(O)c(Cl)c3)nc2c1N[C@H]1CC[C@H](CN(C)C)CC1` [OTSSP167 (hydrochloride)] (inhibitor concentration: 10nM) it is 70%.
Consider `CNc1nc(Nc2cn(C(C)(C)C#N)nc2C)ncc1C(F)(F)F` (inhibitor concentration: 10µM), for which the parental cell viability worked out at 94%.
The figure for `Cc1nc(-c2nc(-c3ccc(OC(F)(F)F)cc3)no2)nn1Cc1cccc(N2CCC(S(C)(=O)=O)CC2)c1` (inhibitor concentration: 10µM) is 100%; for `CNCc1ccc(-c2[nH]c3cc(F)cc4c3c2CCNC4=O)cc1` [Rucaparib] (inhibitor concentration: 3µM) it is 75.5%; for `CC(C)N(C[C@H]1O[C@@H](n2cnc3c(N)ncnc32)[C@H](O)[C@@H]1O)[C@H]1C[C@@H](CCc2nc3cc(C(C)(C)C)ccc3[nH]2)C1` (inhibitor concentration: 30µM) it is 99.5%.
The figure for `Cn1c(=O)n(-c2ccc(C(C)(C)C#N)cc2)c2c3cc(-c4cnc5ccccc5c4)ccc3ncc21` [Dactolisib] (inhibitor concentration: 1µM) is 105%.
With `COCCOc1ccc2c(c1)ncn2-c1ccc2cccc(N3CCC(N)CC3)c2n1` (inhibitor concentration: 300nM) the figure was 99%; with `O=C(NC[C@H](O)CN1CCc2ccccc2C1)c1ccnc(NC2CCC2)c1` (inhibitor concentration: 10µM), 76%; with `COc1ccc2c3n(c(=NC(=O)c4cccnc4)nc2c1OC)CCN3` (inhibitor concentration: 1µM), 82.5%.
Turning to `NC1(C(=O)N[C@@H](CCO)c2ccc(Cl)cc2)CCN(c2nc[nH]c3nccc2-3)CC1` [Capivasertib] (inhibitor concentration: 30µM), the parental cell viability came out at 84%.
The figure for `COc1cccc(OCCCN)c1-c1cc(Nc2cnc(C#N)cn2)n[nH]1` [Prexasertib HCl] (inhibitor concentration: 10nM) is 95%.
On to `O[C@H]1CC[C@H](Nc2ncc3nc(Nc4c(F)cc(F)cc4F)n([C@H]4CCOC4)c3n2)CC1` [Tanzisertib] (inhibitor concentration: 10µM), for which the parental cell viability came to 106%.
Take `COc1cc(OC)c(/C=C/S(=O)(=O)Cc2ccc(OC)c(OP(=O)(O)O)c2)c(OC)c1` [Briciclib] (inhibitor concentration: 100nM): the parental cell viability was 90%.
Regarding `Cc1cc(Nc2cc(N3CCN(C)CC3)nc(Sc3ccc(NC(=O)C4CC4)cc3)n2)n[nH]1` (inhibitor concentration: 300nM), the parental cell viability came out at 4%.
Regarding `CNC(=O)c1ccccc1Oc1nc(Nc2cc(OC)c(OC)c(OC)c2)ncc1Br` (inhibitor concentration: 1µM), the parental cell viability turned out to be 90%.
For the compound `C=C(F)C(=O)N1CCN(c2nc(OC[C@@H]3CCCN3C)nc3c2CCN(c2cccc4cccc(Cl)c24)C3)C[C@@H]1CC#N` (inhibitor concentration: 1µM), the parental cell viability came to 60%.
Turning to `CCN1CCN(C(c2ccc(C(F)(F)F)cc2)c2ccc3cccnc3c2O)CC1` (centres undefined) (inhibitor concentration: 10µM), the parental cell viability stood at 98%.
In the case of `Cc1cc(O)c(-c2ccc([C@@H](C)CN)cc2)c2c1[nH]c(=O)c1sccc12` (inhibitor concentration: 3nM), the parental cell viability was determined as 100%.
The figure for `CC[C@H](C)n1cc(C)c2c(C(=O)NCc3c(C)cc(C)[nH]c3=O)cc(-c3ccc(N4CCNCC4)nc3)cc21` (inhibitor concentration: 3µM) is 100%; for `O=C(C=Cc1ccccc1)NC(NC(=S)Nc1ccc(Cl)cc1)C(Cl)(Cl)Cl` (centres undefined) (inhibitor concentration: 10µM) it is 101%; for `Cc1cc(N)c2cc(NC(=O)Nc3ccc4nc(C)cc(N)c4c3)ccc2n1` [Surfen] (inhibitor concentration: 30µM) it is 80%.
Consider `O=C1C(Cl)=C(NCCN2CCOCC2)C(=O)c2ncccc21` (inhibitor concentration: 300nM), for which the parental cell viability turned out to be 102%.
